Experimental data from patent US11155612.
No constants are given. Whether binding was seen depends on the method and setting. Some binding calls cover weakened binding; strength is not graded here.

By UniProt entry, the sequences of proteins in these tests, tags left out. Where a name states a change or a piece, a line headed by the entry shows the natural chain unless it says otherwise. Chains listed by the source or under a name are the forms on record and can include a tag or linker.
VEGF165 (P15692, form named): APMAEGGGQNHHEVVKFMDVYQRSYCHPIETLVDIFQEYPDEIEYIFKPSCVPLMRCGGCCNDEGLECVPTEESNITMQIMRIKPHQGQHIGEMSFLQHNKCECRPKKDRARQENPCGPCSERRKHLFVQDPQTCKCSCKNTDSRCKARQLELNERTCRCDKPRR

B1: vNAR P98Y (clone M1), anti-VEGF vNAR of SEQ ID NO:1 (protein)
chain: ASLDQTPRTATRETGESLSINCVLTDTSHILFGTKWLWNNPGSTDWESITIGGRYAESVNNQAKSFSLQIKDLTVEDSGTYYCKAQTIGRRKNLLPRYLVNGIAAMGYSSSDYDGAGTVLTVN
B2: vNAR V13 (parental sequence) (protein)
chain: ASLDQTPRTATRETGESLSINCVLTDTSHILFGTKWLWNNPGSTDWESITIGGRYAESVNNQAKSFSLQIKDLTVEDSGTYYCKAQTIGRRKNLLPRPLVNGIAAMGYSSSDYDGAGTVLTVN

Target: VEGF165 (UniProt P15692)
Assay: ELISA, plates coated with VEGF165, dilutions of vNAR

Binder | binding
B1 | binds
B2 | binds
